Experimental data reported in PMC11233548, “Identification of an H-Ras nanocluster disrupting peptide” (Communications Biology, 2024).
No constants are given. Whether binding was seen depends on the method and setting. Binding seen in cells or lysates may run through a third protein. Some results given as binding are weak or reduced against the parent protein; the word gives no strength.

T1: L5UR-SNAP (UniProt P15814)
T1 sequence: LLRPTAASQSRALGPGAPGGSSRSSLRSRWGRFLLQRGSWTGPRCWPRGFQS


Biological target: T1, L5UR-SNAP
Assay: pull-down; HEK293-EBNA cells co-transfected with hGal1 and L5UR-SNAP, mutL5UR-SNAP or SNAP; cleared lysate with SNAP-capture magnetic beads 2 h at room temperature; washes with 150 mM NaCl, 0.5% NP-40; immunoblot

Binder | binding
ASPP2 (HEK lysate) (protein, UniProt Q13625 1-1128) MMPMFLTVYLSNNEQHFTEVPVTPETICRDVVDLCKEPGESDCHLAEVWCGSERPVADNERMFDVLQRFGSQRNEVRFFLRHERPPGRDIVSGPRSQDPSLKRNGVKVPGEYRRKENGVNSPRMDLTLAELQEMASRQQQQIEAQQQLLATKEQRLKFLKQQDQRQQQQVAEQEKLKRLKEIAENQEAKLKKVRALKGHVEQKRLSNGKLVEEIEQMNNLFQQKQRELVLAVSKVEELTRQLEMLKNGRIDSHHDNQSAVAELDRLYKELQLRNKLNQEQNAKLQQQRECLNKRNSEVAVMDKRVNELRDRLWKKKAALQQKENLPVSSDGNLPQQAASAPSRVAAVGPYIQSSTMPRMPSRPELLVKPALPDGSLVIQASEGPMKIQTLPNMRSGAASQTKGSKIHPVGPDWSPSNADLFPSQGSASVPQSTGNALDQVDDGEVPLREKEKKVRPFSMFDAVDQSNAPPSFGTLRKNQSSEDILRDAQVANKNVAKVPPPVPTKPKQINLPYFGQTNQPPSDIKPDGSSQQLSTVVPSMGTKPKPAGQQPRVLLSPSIPSVGQDQTLSPGSKQESPPAAAVRPFTPQPSKDTLLPPFRKPQTVAASSIYSMYTQQQAPGKNFQQAVQSALTKTHTRGPHFSSVYGKPVIAAAQNQQQHPENIYSNSQGKPGSPEPETEPVSSVQENHENERIPRPLSPTKLLPFLSNPYRNQSDADLEALRKKLSNAPRPLKKRSSITEPEGPNGPNIQKLLYQRTTIAAMETISVPSYPSKSASVTASSESPVEIQNPYLHVEPEKEVVSLVPESLSPEDVGNASTENSDMPAPSPGLDYEPEGVPDNSPNLQNNPEEPNPEAPHVLDVYLEEYPPYPPPPYPSGEPEGPGEDSVSMRPPEITGQVSLPPGKRTNLRKTGSERIAHGMRVKFNPLALLLDSSLEGEFDLVQRIIYEVDDPSLPNDEGITALHNAVCAGHTEIVKFLVQFGVNVNAADSDGWTPLHCAASCNNVQVCKFLVESGAAVFAMTYSDMQTAADKCEEMEEGYTQCSQFLYGVQEKMGIMNKGVIYALWDYEPQNDDELPMKEGDCMTIIHREDEDEIEWWWARLNDKEGYVPRNLLGLYPRIKPRQRSLA | binds
RASSF7 (HEK lysate) (protein, UniProt Q02833 1-373) MLLGLAAMELKVWVDGIQRVVCGVSEQTTCQEVVIALAQAIGQTGRFVLVQRLREKERQLLPQECPVGAQATCGQFASDVQFVLRRTGPSLAGRPSSDSCPPPERCLIRASLPVKPRAALGCEPRKTLTPEPAPSLSRPGPAAPVTPTPGCCTDLRGLELRVQRNAEELGHEAFWEQELRREQAREREGQARLQALSAATAEHAARLQALDAQARALEAELQLAAEAPGPPSPMASATERLHQDLAVQERQSAEVQGSLALVSRALEAAERALQAQAQELEELNRELRQCNLQQFIQQTGAALPPPPRPDRGPPGTQGPLPPAREESLLGAPSESHAGAQPRPRGGPHDAELLEVAAAPAPEWCPLAAQPQAL | binds
